Source: PMC4070083
These are yes or no findings as the source states them, for the method shown. Binding calls can cover weak binding; strength is not graded here.

Tests used:
[1] = biological target: SlTCP1 (tomato (Solanum lycopersicum)) (UniProt K4B8V2); assay: two-hybrid; matrix of all combinations; GAL4 BD baits (pDEST32) in yeast PJ69-4α mated with GAL4 AD preys (pDEST22) in PJ69-4a; growth on SD -Leu -Trp -Ade (-LTA) and -Leu -Trp -His (-LTH) with 5, 10 or 15 mM 3-AT; plates at 20°C, scored after 5 d; in triplicate
[2] = biological target: SlTCP2 (tomato (Solanum lycopersicum)) (UniProt Q9FR55); assay: as above

Substance: SlTCP19 (from UniProt A0A3Q7HYI7)
- binding [1]: binds
- binding [2]: binds
